Out of some 220,000 compounds screened, about 2,400 (1.1%) were called active. Inconclusive results, whose numbers are uncertain, are shown with a selection of clear calls. The call rests on the fitted dose curve; in most records, active means well fitted inhibition curve with a large enough effect; inconclusive means small, poorly fitted or top-dose-only effect, or effect the other way; inactive means no such curve, though single readings can be large or run the other way. A potency beside an inconclusive call is a rough fit, not a confirmed value.
Assay: qHTS Multiplex Assay to Identify Dual Action Probes in a Cell Model of Huntington: Aggregate Formation (GFP); further: nearly all actives have a fitted effect of over 60% in size
Details: PC12 HttQ103-GFP aggregates, Acumen cytometry, 40 h; activity change, negative = inhibition: at 46.1 µM (top of the series) unless noted
Excerpt: NIH Chemical Genomics Center [NCGC]
NIH Molecular Libraries Probe Production centers Network [MLPCN]
Assay Submitter (PI): Wei Zheng
Huntington's disease is a neurodegenerative disorder caused by a trinucleotide repeat expansion in Exon 1 of the Huntingtin gene. The CAG trinucleotide encodes glutamine and polyglutamine expansions cause cell death in selective areas of the brain. Huntington polyglutamine repeats have the tendency to form aggregates which are observable in later stages of the disease. The exact nature of the aggregates, whether toxic, protective, or insignificant, is unclear.
A stable PC12 cell line containing a gene fusion of Exon 1 of the Huntingtin gene linked to GFP under the control of the inducible ecdysone promoter were used as the cell-based model of Huntington Disease for high throughput screening. Exon 1 of the Huntingtin gene contained an expansion of 103 polyglutamines (Q103) which, when expressed, caused cell death and distinct, bright GFP aggregates. The amount of cell death and the size and intensity of GFP aggregates increased over time and induction level. The cell death were quantified with a measurement of ATP content in the cells. A maximal 40-50% of cell death was observed when the Huntington gene was induced in this cell line.
We optimized this assay in a homogeneous 1536 well format. A quantitative high throughput screen (qHTS) was conducted on the PC12 cells which were induced to express the toxic fusion construct. Small molecules which reduced aggregate formation were identified bu using a laser scanning cytometer calibrated to detect the aggregates in cell lysates.
PC12 cells stably containing a construct with an ecdysone inducible promoter expressing GFP fused to the exon 1 of HTTQ103 (Huntington protein which containing a 103 ployglutamine expansion) were used.
NCGC Assay Protocol Summary:
Sequence, Parameter, Description
1, Reagent, 5 uL 1500 cells/well 1536 TC treated White clear bottom plate
2, Compound, 23 nL Tebufenozide inducer (100 nM final) to all columns
3, Compound, 23 nL 40 uM to 0.5 nM Libraries
5, Reagent, 5 ul ATPLite cell death assay reagent
6, Detector, Aggregate quantitation by Acumen Explorer
Media consisted of phenol red free DMEM + 5% equine serum (Hyclone # SH30072.03 ), 5% supplemented Bovine Calf Serum (Hyclone # SH30074.03 ), 1x pen/strep, no G418
Acumen Explorer was used to quantitate GFP aggregates using the following criteria: […] laser excitation, 500-530 nm emission, the PMT was set at a voltage of 450 volts, and objects ranging in size of […] in size having a signal of 6 STDEV above background were collected.
Control columns: 1 = DMSO, 2= 2 uM teb dilns (1:1), 4 = 100 nM Teb inducer. Sample columns received 100 nM Teb.
On the % scale 0 is the no-effect control and ±100 the full control effect; potency means the concentration at half of the fitted maximal effect.

With `CC(=O)c1ccc(-n2nnnc2SCC(=O)Nc2sc(C)c(C)c2C#N)cc1` as the compound, how does the Potency read?
The Potency was inconclusive: 12.6 µM [activator, single point].

For `CCCn1nc2cc(C(=O)NCc3ccccc3)ccc2c1OCC`, which Potency is on record?
The Potency was inconclusive: 14.1 µM [inhibitor, single point].

With `COc1cccc(NC(=O)Nc2ccc3nsnc3c2)c1` as the compound, how does the Potency read?
The Potency was inconclusive: 35.5 µM [inhibitor, partial curve].

With `S=C(Nc1ccccc1)Nc1nc2ccccc2n1CCOc1ccc(Cl)cc1` as the compound, how does the Potency read?
Its Potency is inconclusive: 22.4 µM [inhibitor, single point].

For `COc1ccc(CNC(=O)CCCn2nc([N+](=O)[O-])cc2C)cc1`, which Potency is on record?
The Potency was inconclusive: 5.62 µM [inhibitor, single point].

Which Potency does the source give for `O=C(Cn1cnc2c(cnn2-c2ccc(Cl)cc2)c1=O)NC1CCCCC1` here?
The Potency was inconclusive: 0.794 µM [activator, single point].

Which Potency does the source give for `O=C(c1cc2c(s1)-c1ccccc1OC2)N1CCCC1` here?
The Potency was inconclusive: 6.31 µM [inhibitor, partial curve].

Which Potency does the source give for `COCCCn1c(SCCc2ccccc2)nc2cc(OC)c(OC)cc2c1=N` here?
The Potency was inconclusive: 35.5 µM [inhibitor, single point].

Which activity change, negative = inhibition does the source give for `O=C(O)CC12CC3CC(C1)CC(n1ncc(NCC4CCCO4)c(Cl)c1=O)(C3)C2` (stereo not drawn) here?
The activity change, negative = inhibition was inactive: 9.72% [at 9.22 µM].

Which Potency does the source give for `CC12CCC(C(=O)Nc3ncc([N+](=O)[O-])s3)(OC1=O)C2(C)C` (stereo not drawn) here?
Its Potency is inconclusive: 35.5 µM [inhibitor, single point].

For `CCCCNS(=O)(=O)c1ccc(NC(=O)C(Sc2ccccc2)c2ccccc2)cc1` (stereo not drawn), which Potency is on record?
The Potency was inconclusive: 22.4 µM [inhibitor, single point].

Which activity change, negative = inhibition does the source give for `Cc1c(Cl)sn(-c2ccc(Cl)cc2)c1=O` here?
The activity change, negative = inhibition was inactive: 16.5% [at 9.22 µM].

With `CC(C)(C)c1csc(NC(=O)CSc2nc3ccccc3c(=O)[nH]2)n1` as the compound, how does the Potency read?
The Potency was inconclusive: 11.2 µM [inhibitor, partial curve, poor fit].

For `C(=N\Nc1nc2ccccc2[nH]1)/c1cccc2nccnc12`, which Potency is on record?
The Potency was inconclusive: 3.16 µM [inhibitor, single point].

Which “activity change, negative = inhibition” value does the source give for `CCCS(=O)(=O)N1CCN(C(=O)COc2ccccc2)CC1` here?
Its value is inactive: -11.9%.

With `COc1ccccc1-c1cn[nH]c1-c1ccc(OCc2ccccc2)cc1O` as the compound, how does the activity change, negative = inhibition read?
The activity change, negative = inhibition was inactive: 22.6% [at 9.22 µM].

Which Potency does the source give for `O/N=C\c1cccn1-c1ccc(Br)cc1` here?
The Potency was inconclusive: 7.94 µM [inhibitor, partial curve].

For `CC(C)C[C@H](N)c1cn([C@@H](CCCCN)C(=O)N2CCNCC2)nn1`, which activity change, negative = inhibition is on record?
The activity change, negative = inhibition was inactive: -31.2% [at 9.22 µM].

With `Cc1ccccc1N1C(=O)[C@@H]2Cc3ccccc3CN2C1=O` as the compound, how does the Potency read?
The Potency was inconclusive: 35.5 µM [inhibitor, single point].

With `O=C(Nc1ccc2ccccc2c1)c1ccc(NS(=O)(=O)c2ccc(Br)s2)cc1` as the compound, how does the “activity change, negative = inhibition” value read?
The value was inactive: -25.9%.

For `O=C(c1c(F)c(F)c(F)c(F)c1F)N1CCN(c2cccc(C(F)(F)F)c2)CC1`, which Potency is on record?
Its Potency is inconclusive: 5.01 µM [inhibitor, partial curve, poor fit].

Which “activity change, negative = inhibition” value does the source give for `O=c1cc(-c2ccccc2)n(S(=O)(=O)c2ccccc2)o1` here?
Its value is inactive: -13.7%.

For `O=C(CSc1nnc(-c2cccs2)n1-c1ccccc1)c1ccc2c(c1)OCCO2`, which Potency is on record?
Its Potency is inconclusive: 22.4 µM [activator, single point].

Which Potency does the source give for `COC(=O)c1ccc(CSc2nc3ccccc3c(=O)n2-c2ccccc2)o1` here?
Its Potency is inconclusive: 17.8 µM [activator, partial curve].

With `Cc1ccc2c(c1)C(=O)CC1(CCCC1)O2` as the compound, how does the activity change, negative = inhibition read?
Its activity change, negative = inhibition is inactive: -35.9% [at 9.22 µM].

Which Potency does the source give for `O=c1[nH]c2cc3c(cc2cc1C(c1nnnn1CC1CCCO1)N1CCCCCC1)OCCO3` (stereo not drawn) here?
The Potency was inconclusive: 0.562 µM [inhibitor, full curve].

With `Cc1ccccc1OCC(O)Cn1c(NCc2ccco2)nc2c1c(=O)[nH]c(=O)n2C` (stereo not drawn) as the compound, how does the Potency read?
The Potency was inconclusive: 0.562 µM [inhibitor, full curve, poor fit].

With `CCn1cc(C2=NC(CCSC)CO2)c2ccccc21` (stereo not drawn) as the compound, how does the Potency read?
The Potency was inconclusive: 8.91 µM [inhibitor, partial curve].

With `Cc1ccc(NC(=O)c2cccc(OCc3c(C)noc3C)c2)cc1S(=O)(=O)Nc1ccccc1Cl` as the compound, how does the Potency read?
Its Potency is inconclusive: 25.1 µM [inhibitor, partial curve].

For `CC1(C)CC(=O)c2c(O)cc(OCc3ccc([N+](=O)[O-])cc3)cc2O1`, which “activity change, negative = inhibition” value is on record?
The value was inactive: 8.77%.

With `C=C(C)CSc1nnc2n(N)c(=O)c3ccccc3n12` as the compound, how does the Potency read?
The Potency was inconclusive: 2.82 µM [activator, partial curve].

For `O=C(CN1CCCCC1)Nc1cccc(Oc2ccccc2)c1`, which “activity change, negative = inhibition” value is on record?
Its value is inactive: -6.05%.

With `CC1(C)CC(=O)C2=C(C1)N(Cc1ccco1)C(=O)C2(NC(=O)C1CCCCC1)C(F)(F)F` (stereo not drawn) as the compound, how does the Potency read?
Its Potency is active: 5.62 µM.

With `O=C(O)CCC(=O)N1N=C(c2c(-c3ccccc3)c3cc(Cl)ccc3[nH]c2=O)CC1c1cccs1` (stereo not drawn) as the compound, how does the “activity change, negative = inhibition” value read?
Its value is inactive: -6.3%.

With `CCOc1ccc(N2C(=O)CC(N3CCN(C(=O)CN4CCCC4)CC3)C2=O)cc1` (stereo not drawn) as the compound, how does the activity change, negative = inhibition read?
Its activity change, negative = inhibition is inactive: 3.86% [at 9.22 µM].

For `CCc1c(C)nc(SCC(=O)N2CCc3ccccc32)[nH]c1=O`, which Potency is on record?
The Potency was inconclusive: 1.58 µM [activator, partial curve].

With `Cc1ccc(Nc2ncnc3sc(C)c(C)c23)cc1` as the compound, how does the Potency read?
The Potency was inconclusive: 35.5 µM [inhibitor, single point].

With `CC1CCCC(NS(=O)(=O)c2ccc3c(c2)OCCO3)C1C` (stereo not drawn) as the compound, how does the Potency read?
Its Potency is inconclusive: 25.1 µM [inhibitor, single point].

Which Potency does the source give for `O=C(Nc1nccs1)c1ccc(COc2ccccc2Br)o1` here?
The Potency was inconclusive: 35.5 µM [inhibitor, single point].

With `CC1CN(c2ncnc3c2c(-c2ccccc2)cn3-c2ccc(F)cc2)CC(C)O1` (stereo not drawn) as the compound, how does the Potency read?
The Potency was inconclusive: 14.1 µM [inhibitor, single point].

For `CCOC(=O)c1cnn(-c2nc3sc4c(c3c(=O)[nH]2)CCCC4)c1N`, which Potency is on record?
The Potency was inconclusive: 0.631 µM [inhibitor, full curve, poor fit].

For `O=C(NCC(=O)N(c1cccnc1)C(C(=O)NC1CCCC1)c1cccs1)c1ccco1` (stereo not drawn), which activity change, negative = inhibition is on record?
The activity change, negative = inhibition was inactive: 5.51% [at 9.22 µM].

For `NS(=O)(=O)c1ccc(CNC(=O)C2(c3ccc(Cl)cc3)CC2)cc1`, which Potency is on record?
Its Potency is inconclusive: 25.1 µM [activator, single point].

— PubChem BioAssay AID1688 (National Center for Advancing Translational Sciences (NCATS), 2009)
